In this assay the target is T1, endogenous Caspr1 in HBMECs (human (endogenous in HBMECs)) (UniProt P78357).
T1 sequence: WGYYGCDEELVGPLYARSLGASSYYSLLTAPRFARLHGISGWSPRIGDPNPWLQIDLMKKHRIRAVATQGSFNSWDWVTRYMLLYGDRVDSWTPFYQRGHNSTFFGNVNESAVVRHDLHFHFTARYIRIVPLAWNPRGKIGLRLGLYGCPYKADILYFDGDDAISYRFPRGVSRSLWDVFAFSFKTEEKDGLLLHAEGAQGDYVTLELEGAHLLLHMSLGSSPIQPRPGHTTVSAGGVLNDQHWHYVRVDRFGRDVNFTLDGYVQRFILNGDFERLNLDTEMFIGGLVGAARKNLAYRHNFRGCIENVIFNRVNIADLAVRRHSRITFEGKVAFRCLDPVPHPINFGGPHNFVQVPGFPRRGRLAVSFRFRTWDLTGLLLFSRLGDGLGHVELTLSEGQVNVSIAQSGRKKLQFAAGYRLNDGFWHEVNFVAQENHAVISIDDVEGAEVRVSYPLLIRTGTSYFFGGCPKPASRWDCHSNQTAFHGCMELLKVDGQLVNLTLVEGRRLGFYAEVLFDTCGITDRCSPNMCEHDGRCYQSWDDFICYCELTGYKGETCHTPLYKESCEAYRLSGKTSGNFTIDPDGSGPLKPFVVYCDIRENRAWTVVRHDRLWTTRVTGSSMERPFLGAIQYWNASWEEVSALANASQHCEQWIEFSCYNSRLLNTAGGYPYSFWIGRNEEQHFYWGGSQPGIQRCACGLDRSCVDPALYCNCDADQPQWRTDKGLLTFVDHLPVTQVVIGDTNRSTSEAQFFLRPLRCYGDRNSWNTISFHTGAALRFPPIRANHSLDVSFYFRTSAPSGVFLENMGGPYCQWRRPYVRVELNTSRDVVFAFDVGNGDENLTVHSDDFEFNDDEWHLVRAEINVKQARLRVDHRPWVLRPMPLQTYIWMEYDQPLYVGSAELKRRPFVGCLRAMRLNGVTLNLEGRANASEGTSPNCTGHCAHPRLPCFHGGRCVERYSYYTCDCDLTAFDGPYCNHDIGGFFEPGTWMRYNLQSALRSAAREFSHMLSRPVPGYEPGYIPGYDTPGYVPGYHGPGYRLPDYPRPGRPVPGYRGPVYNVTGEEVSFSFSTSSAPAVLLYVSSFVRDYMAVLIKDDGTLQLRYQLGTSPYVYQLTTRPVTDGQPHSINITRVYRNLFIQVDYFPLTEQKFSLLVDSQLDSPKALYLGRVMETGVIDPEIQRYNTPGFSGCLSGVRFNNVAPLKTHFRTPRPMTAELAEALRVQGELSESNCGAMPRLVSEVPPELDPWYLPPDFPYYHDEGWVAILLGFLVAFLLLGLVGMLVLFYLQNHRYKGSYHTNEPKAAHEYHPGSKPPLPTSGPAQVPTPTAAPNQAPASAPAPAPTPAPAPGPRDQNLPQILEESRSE
Nature of the assay: affinity purification with mass spectrometry; pulldown experiments followed by mass spectrometry in HBMECs; bait and conditions not told (Supplementary Fig. 4A).

Chains of the proteins cited; added tags and fusions are not shown.
UniProt Q05397: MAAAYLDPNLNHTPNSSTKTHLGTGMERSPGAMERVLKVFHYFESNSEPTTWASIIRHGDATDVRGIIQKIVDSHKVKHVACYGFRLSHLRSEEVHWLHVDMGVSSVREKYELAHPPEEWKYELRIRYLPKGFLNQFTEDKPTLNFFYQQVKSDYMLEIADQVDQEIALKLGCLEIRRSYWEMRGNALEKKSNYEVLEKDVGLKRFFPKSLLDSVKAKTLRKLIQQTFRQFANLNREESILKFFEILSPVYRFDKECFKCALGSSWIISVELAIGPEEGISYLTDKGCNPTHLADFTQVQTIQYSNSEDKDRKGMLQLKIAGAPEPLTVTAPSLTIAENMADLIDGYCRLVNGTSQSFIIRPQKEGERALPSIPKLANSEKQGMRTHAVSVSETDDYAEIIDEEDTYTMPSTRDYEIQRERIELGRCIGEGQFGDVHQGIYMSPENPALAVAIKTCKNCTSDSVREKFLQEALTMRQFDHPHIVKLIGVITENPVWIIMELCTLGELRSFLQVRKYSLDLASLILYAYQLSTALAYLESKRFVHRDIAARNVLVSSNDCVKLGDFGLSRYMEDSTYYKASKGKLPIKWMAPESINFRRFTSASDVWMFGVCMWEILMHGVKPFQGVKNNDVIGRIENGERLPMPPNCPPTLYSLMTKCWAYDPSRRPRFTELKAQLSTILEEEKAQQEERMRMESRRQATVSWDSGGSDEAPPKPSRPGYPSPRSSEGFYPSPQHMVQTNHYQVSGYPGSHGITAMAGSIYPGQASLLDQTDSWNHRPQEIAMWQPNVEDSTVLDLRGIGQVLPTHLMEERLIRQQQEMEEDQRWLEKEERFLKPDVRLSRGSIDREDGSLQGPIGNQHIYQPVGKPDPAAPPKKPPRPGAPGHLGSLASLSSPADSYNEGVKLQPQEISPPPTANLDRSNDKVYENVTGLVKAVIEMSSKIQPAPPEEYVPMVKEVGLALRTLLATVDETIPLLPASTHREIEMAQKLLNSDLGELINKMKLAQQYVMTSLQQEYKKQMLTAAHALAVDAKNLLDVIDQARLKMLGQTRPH

These are yes or no findings as the source states them, for the method shown. Binding seen in cells or lysates may run through a third protein. Here binding means that the protein was enriched with, or labelled near, the bait; the list need not be complete.

With “focal adhesion kinase (FAK), endogenous in HBMECs (from UniProt Q05397 1-1052) (enzyme)”, the binding entry is given as “binds”.

Values taken from PMC5997682.
